# Reference: patent publication US5389615A, “Peptides and pharmaceutical composition thereof in the treatment of pain” (British Technology Group Ltd., priority 1988, dated 1995)
# “Also recorded” adds a separate entry of the source. Not every detail of the peptide structures is certain; ends, links or a residue may be inferred. Non-standard residues stand in square brackets, D forms with d. Residues, ends and D or L forms follow the SMILES beside them.
# Columns and labels:
# [1] = system: hyperalgesia evoked by PGE2; assay: Rat paw pressure test, hyperalgesia evoked by PGE2; settings: in vivo
# [2] = system: hyperalgesia evoked by Iloprost; assay: Contortions (writhing) evoked by Iloprost, Examples 9 and 10; type: in vivo, mice; settings: for % inhibition of response to Iloprost (10 μg/kg): Example 9; for (-%) reduction of contorsions vs control / total number of contorsions during 20 minutes after ip challenge: Example 10, Iloprost 10 μg/kg; for total number of contorsions during 20 minutes after ip challenge: control 39.4
# Experimental: (§1) Iloprost is a stable analogue of prostacyclin and has the formula: [drawing 4]
# (§2) Example 9 was repeated with some groups of mice given indomethacin at various doses rather than the peptide K(D)PT. A control group of mice received neither indomethacin nor K(D)PT. The data are the total number of contorsions measured during 20 minutes after the ip challenge.
# [3] = system: hind paws of rats; assay: Hyperalgesic (agonist) activity in rat paw pressure test; type: in vivo
# [4] = system: hyperalgesia evoked by carrageenan; assay: Rat paw pressure test, hyperalgesia evoked by carrageenan; type: in vivo; settings: given two hours after the carrageenan
# [5] = system: hyperalgesia evoked by acetic acid; assay: Contortions (writhing) evoked by acetic acid, Examples 9 and 10; type: in vivo, mice; settings: for % inhibition of response to acetic acid (0.6%): Example 9; for (-%) reduction of contorsions vs control / total number of contorsions during 20 minutes after ip challenge: Example 10, acetic acid .6%; for total number of contorsions during 20 minutes after ip challenge: control 45.3
# Experimental: as §1, §2
# [6] = system: hyperalgesia evoked by IL-1β; assay: Modified Randall-Sellito rat paw pressure test, hyperalgesia evoked by IL-1β; type: in vivo; settings: for DELTA REACTION TIME: 3h after IL-1β, control 23.9; for antagonism of hyperalgesia evoked by IL-1β (words): peptide given before IL-1β
# [7] = system: hyperalgesia evoked by IL-1α; assay: Rat paw pressure test, hyperalgesia evoked by IL-1α; type: in vivo; settings: 200μg/150 g rat sc, 30 min before ip IL-1
# [8] = in vivo
# [9] = system: hyperalgesia evoked by DbcAMP; assay: Rat paw pressure test, hyperalgesia evoked by DbcAMP; settings: in vivo, ip
# [10] = system: human blood mononuclear cells (MNC); assay: PGE2 release by human blood mononuclear cells; type: cell-based; settings: 200 µg/ml, 0.58 millimoles/L
# Experimental: The effect of K(D)PT and indomethacin on PGE2 release by human blood mononuclear cells (MNC) was investigated. The MNC were isolated from buffy coat residues by density gradient centrifugation (Ficoll-hypaque, Sigma) and resuspended in RPMI 1640 culture medium (Gibco)+ 2% inactivated foetal calf serum (Imperial Laboratories). […] Values are means of quadruplicates ±s.e.m.'s. PGE2 concentrations were measured by radioimmunoassay (NEN Research Products).
smiles,measurement,setting,value
"C[C@@H](O)[C@H](NC(=O)[C@H]1CCCN1C(=O)[C@@H](N)CCCCN)C(=O)O [K(D)PT, Lys-D-Pro-Thr] (H-Lys-[dP]-Thr-OH)",antagonism of hyperalgesia evoked by PGE2,[1],no effect on PGE2 -evoked hyperalgesia; also recorded: not exhibited
same,% change of delta reaction time vs control (=100%),[1]; ip,-0.6%
same,DELTA REACTION TIME,[1]; ip,16.7 ± 0.6
same,% inhibition of response to Iloprost (10 μg/kg),[2]; 0.5 mg/kg sc,0%
same,% inhibition of response to Iloprost (10 μg/kg),[2]; 2 mg/kg sc,27%
same,% inhibition of response to Iloprost (10 μg/kg),[2]; 8 mg/kg sc,33%
same,% inhibition of response to Iloprost (10 μg/kg),[2]; 32 mg/kg sc,38%
same,(-%) reduction of contorsions vs control,[2]; 2.0 mg/kg,34.0%
same,total number of contorsions during 20 minutes after ip challenge,[2]; 2.0 mg/kg,26.0
same,(-%) reduction of contorsions vs control,[2]; 8.0 mg/kg,43.2%
same,total number of contorsions during 20 minutes after ip challenge,[2]; 8.0 mg/kg,22.4
same,(-%) reduction of contorsions vs control,[2]; 32.0 mg/kg,40.0%
same,total number of contorsions during 20 minutes after ip challenge,[2]; 32.0 mg/kg,23.8
same,(-%) reduction of contorsions vs control,[2]; .5 mg/kg,9.6%
same,total number of contorsions during 20 minutes after ip challenge,[2]; .5 mg/kg,34.6
same,agonist (hyperalgesic) activity,[3],did not exhibit this agonist activity
same,effect on induced hyperalgesia when given after carrageenan,[4],no effect on the induced hyperalgesia
same,maximal analgesia,"[5]; 8 mg/kg, contorsions induced by acetic acid and Iloprost, no difference between 8 and 32 mg/kg",~45%
same,% inhibition of response to acetic acid (0.6%),[5]; 0.5 mg/kg sc,11%
same,% inhibition of response to acetic acid (0.6%),[5]; 2 mg/kg sc,36%
same,% inhibition of response to acetic acid (0.6%),[5]; 8 mg/kg sc,45%
same,% inhibition of response to acetic acid (0.6%),[5]; 32 mg/kg sc,41%
same,(-%) reduction of contorsions vs control,[5]; 2.0 mg/kg,30.2%
same,total number of contorsions during 20 minutes after ip challenge,[5]; 2.0 mg/kg,31.6
same,(-%) reduction of contorsions vs control,[5]; 8.0 mg/kg,46.5%
same,total number of contorsions during 20 minutes after ip challenge,[5]; 8.0 mg/kg,24.2
same,(-%) reduction of contorsions vs control,[5]; 32.0 mg/kg,43.4%
same,total number of contorsions during 20 minutes after ip challenge,[5]; 32.0 mg/kg,25.6
same,(-%) reduction of contorsions vs control,[5]; .5 mg/kg,14.7%
same,total number of contorsions during 20 minutes after ip challenge,[5]; .5 mg/kg,38.6
same,reduction of contorsions,[5]; contorsions induced in mice by ip acetic acid and Iloprost,effective in reducing contorsions
same,DELTA REACTION TIME,[6]; 50 μg/150 g rat ip 1h before IL-1β (0.05U) ip,18.7 ± 0.5 s
same,DELTA REACTION TIME,[6]; 100 μg/150 g rat ip 1h before IL-1β (0.05U) ip,12.8 ± 0.6 s
same,DELTA REACTION TIME,[6]; 200 μg/150 g rat ip 1h before IL-1β (0.05U) ip,6.3 ± 0.4 s
same,effect on induced hyperalgesia when given after IL-1β,[6]; given two hours after the IL-1β,no effect on the induced hyperalgesia
same,ED50 antagonising IL-1β evoked hyperalgesia,[6]; rats,~85 μg/150 g rat
same,antagonism of hyperalgesia evoked by IL-1β (words),[6]; rats,dose-dependent antagonism; also recorded: consistent with competitive antagonism
same,antagonism of hyperalgesia evoked by IL-1β (words),"[6]; rats, listed as Lys-D-Pro-Thr",antagonize hyperalgesia evoked by Il-1β
same,antagonism of hyperalgesia evoked by IL-1α,[7],only weakly antagonized
same,morphine-like activity in hot plate test,[8],not morphine-like
same,"reaction time difference, hot plate",[8],0.37 s
same,% change of delta reaction time vs control (=100%),[9],+3.5%
same,DELTA REACTION TIME,[9],17.8 ± 0.6
same,PGE2 release by MNC incubated for 4h with IL-1α (50 U/ml),"[10]; added 45 min before, DMSO control 1.6",2.0 ± 0.2 ng/mL
same,PGE2 release by MNC incubated for 4h with IL-1β (50 U/ml),"[10]; added 45 min before, DMSO control 2.2",2.8 ± 0.2 ng/mL
same,PGE2 release by MNC (5 × 10^6 cells/ml) incubated for 4h with Saline control (0.9% w/v),[10]; DMSO control 1.0,1.3 ± 0.3 ng/ml
